Experimental data from patent publication US9410947B2, “Fluorescent dyes and related methods” (University of Washington through its Center for …, priority 2012, dated 2016).
Entries after “also recorded” stand apart in the source; their conditions may differ. At least one compound was matched to its structure with a doubt left.

Legend:
salmon sperm DNA = experiment: Photometric (colorimetric) titration of dye solutions with DNA, Scatchard / n-K fit; format: binding
Experimental: Dye/DNA binding was assessed. The binding constant and number of dye molecules bound per base pair were assessed by means of photometric titrations (Peacocke, A. R.; Skerrett, J. N. H., Trans. Faraday Soc. 1956, 52, 261, Angerer, L. M.; Moudrianakis, E. N., J. Mol. Bio. 1972, 63, 505-521) of dye solutions with commercially available salmon sperm DNA (Sigma Aldrich, MW 50 kD to 100 kD) in 10 mM TE buffer at pH 7.2. Experiments were run using a temperature-controlled Ocean Optics diode array spectrophotometer at 25.0° C., with 2.5 mL of dye solution at a concentration sufficient for an initial optical density near 0.75, adding 1.5 mM DNA solution in 30 μL aliquots.
This example describes affinity of DANPY-1 to DNA. The affinity of DANPY-1 was compared to the common intercalating dye ethidium bromide by means of photometric titrations with DNA in aqueous buffer. The wavelength undergoing the largest absorption change (467 nm for ethidium bromide, 391 nm for DANPY-1) was used for determining the fraction of dye bound. An aqueous environment was chosen due to the observed lack of substantial binding between ethidium bromide and CTAB-DNA and concerns about difficulty in penetrating the tightly bound surfactant layer. These experiments were analyzed using the Scatchard equation (Scatchard, G., Ann. N.Y. Acad. Sci. 1949, 51, 662-672.)
[formula] where r is the ratio of bound dye to total DNA (bound or unbound), n is the number of binding sites occupied per base pair, and K is the binding constant. […]
A titration methodology was also used. Dyes were evaluated for their DNA-binding properties by means of colorimetric titrations in buffered aqueous solution (1×TE buffer titrated to pH 7.2 with HCl). […] After allowing the solution to mix for about one minute, the stirrer was stopped and a spectrum was recorded. If the initial absorbance of the dye was ≧1, the dye solution was diluted with the appropriate solvent (TE buffer, methanol, or butanol) until the initial absorbance was <1. Runs continued until changes in absorbance became small (dilution only) or 450 μL of titrant was added, whichever was longer. Spectra were then examined to determine the wavelength at which the dye's absorbance changed most over the course of the titration. The reduced absorbance change
[formula] was calculated at the selected wavelength for each point in the titration. The absorbance of the free dye (Af) was obtained from the initial absorbance value, and the absorbance of the bound dye (Ab) was obtained from linear regression of the absorbance values at the three highest measured concentrations of dye versus 1/[DNA]. […]
[formula] where [L] is the concentration of unbound dye and [LN] is the concentration of bound dye. These can be determined from the equilibrium expression […]

DNA = experiment: Electronic circular dichroism of dye added to DNA solution; format: binding
dsDNA = experiment: QCM-D binding study, dsDNA layer; set-up: species or system salmon; settings: pH 7.2 1×TE buffer, 298 K, 0.3 mL/min, rinse ten minutes
Source text: (§1) In yet another aspect, the present disclosure includes methods for quantifying nucleic acid molecules in a sample. For example, the present disclosure can include a method of determining a quantity of a nucleic acid molecule in a sample using the Quartz Crystal Microbalance with Dissipation Monitoring (QCM-D) method. QCM-D can be used to determine the formation of films (e.g., nm in thickness). For example, films may be formed on a surface from proteins, polymers, surfactants and cells. QCM-D can detect films formed in liquid and may be used to determine binding kinetics of, for example, cationic dyes (e.g., ethidium bromide, DANPY-1 and/or DAST). For example, a Q-Sense instrument (e.g., a Q-Sense E4 instrument, Biolin Scientific AB, Stockholm) can be used for QCM-D using a dedicated set of QCM sensors (e.g., SiO2-coated). The procedures of cleaning, deposition, mass monitoring, and preparing nucleic acid for QCM-D are known. (R. J. Rawle, C. R. D. Selassie, M. S. Johal, Langmuir 2007, 23, 9563-9566). Data can be output as kinetics that can include structural changes and mass changes. The crystals can be, for example, coated with a polyethylene imine (PEI) layer to enable binding of anionic nucleic acids. The crystals can be, for example, coated with a polymer polystyrene sulfonate (PSS), that only undergoes loose electrostatic binding. […]

ssDNA = experiment: QCM-D binding study, ssDNA layer; set-up: species or system salmon; settings: pH 7.2 1×TE buffer, 298 K, 0.3 mL/min, rinse ten minutes
Source text: as §1

[1] = QCM-D binding study, PSS control polymer; settings: pH 7.2 1×TE buffer, 298 K
Source text: as §1

tRNA = experiment: QCM-D binding study, tRNA layer; settings: pH 7.2 1×TE buffer, 298 K, 0.3 mL/min, rinse ten minutes
Source text: as §1

[2] = QCM-D binding study, bare SiO2 control; settings: pH 7.2 1×TE buffer, 298 K
Source text: as §1

[3] = QCM-D binding study, PEI layer
Source text: The three nucleic acids (e.g., single-stranded DNA (ssDNA), double-stranded DNA (dsDNA), and transfer RNA (tRNA)) used in this example are anionic. The crystals were coated with a polyethylene imine (PEI) layer to create a surface and enable binding of the nucleic acids. […] Polystyrene sulfonate (PSS) was used as a control polymer. As controls, PSS which can only undergo loose electrostatic binding, and bare SiO2 were used. Any materials used for coating were allowed to deposit until a stable mass was reached (e.g., for five minutes) followed by five minutes of rinsing with buffer between each layer; (1) PEI or PSS, (2) nucleic acid and (3) the dye. After deposition, the film was rinsed with buffer for ten minutes. If the adsorbed mass returned to near the form immediately prior to the addition of the dye, then remained stable, the binding was characterized as reversible. Binding was characterized as irreversible if the mass remained constant after rinsing or leveled off at a substantially higher value than before the dye was added.

Gymnodinium sp = experiment: Stain of living cells for fluorescence microscopy; format: cell-based; settings: dissolved in DMSO; excitation 450-490 nm
Prorocentrum minimum = experiment: Flow cytometric analysis of DNA staining in alga; format: cell-based; settings: for saturation of cells with dye: 10 minute time course
Source text: In another aspect, this example describes a set of experiments to investigate DANPY-1 dye for use in flow cytometric analysis of DNA. The alga Prorocentrum minimum was selected for these studies. Several controls were run to: (a) ensure that cell integrity was maintained, (b) assess the contribution of unbound DANPY-1 to fluorescent background signals and (c) determine a dye concentration and the intensity of the fluorescent signal when the target DNA is fully saturated with bound dye. The DANPY-1 concentrations that were tested in these preliminary experiments ranged from 7.1 μM to 228 μM. All of the flow cytometric work was performed on an Accuri C6 flow cytometer (BD Scientific, Ann Arbor, Mich.). The excitation wavelength for the FL1, FL2, and FL3 detectors (or channels) is 488 nm and the FL4 laser excites at a wavelength of 640 nm. The fluorescent wavelengths that each channel detects are as follows: FL1 530/30, FL2 585/40, FL3 670 LP and FL4 675/25. These experiments are summarized below (data not shown): […]

[4] = Absorbance and fluorescence spectra (linear optical properties); format: physicochemical; settings: for λmax (fluor, nm): excitation 400 nm
[5] = Hyper-Rayleigh scattering measurement of hyperpolarizability; format: physicochemical; settings: dichloromethane, 800 nm, extrapolated to zero frequency; sign cannot be determined

For CC(=O)[O-].CN(C)c1ccc2cc(-c3cc[n+](C)cc3)ccc2c1 [DANPY-1, dimethylaminonaphthylpyridinium], the “shift in absorbance maximum upon addition of DNA” value (salmon sperm DNA; TE buffer) was “exhibited a shift in absorbance maximum”, the “n (base pairs/dye)” value (salmon sperm DNA; TE buffer pH 7.2, 25 °C, fit of binding curves) was 2 and the “fraction of sites bound (nearest-neighbor exclusion)” value (salmon sperm DNA; aqueous buffer) was “binds to only half of the sites”. For the same compound, the “binding affinity larger than ethidium bromide” value (salmon sperm DNA; relative to ethidium bromide, aqueous TE buffer pH 7.2, 25.0 °C, Scatchard equation) was 33%, the “additional circular dichroism peak in the dye's UV absorbance range when added to DNA” value (DNA) was “No such peak is observed” and the “QCM-D binding to dsDNA” value (dsDNA) was “Irreversible”. The “QCM-D binding to ssDNA” value (ssDNA) was “Irreversible”, the “QCM-D binding to PSS” value [1] was “did not bind strongly; also recorded: Reversible” and the “QCM-D binding to tRNA” value (tRNA) was “Irreversible”. The “QCM-D binding to SiO2” value [2] was “did not bind strongly; also recorded: Reversible”, the “QCM-D binding to PEI layer” value [3] was “did not bind” and the “cell membrane crossing and nuclear accumulation” value (Gymnodinium sp) was “capable of crossing the cell membrane of Gymnodinium sp and accumulating in the nucleus”. For the same compound, the “saturation of cells with dye” value (Prorocentrum minimum; 7.1 μM dye) was “not fully saturated”, the “saturation of cells with dye” value (Prorocentrum minimum; 57 μM dye) was “not fully saturated” and the “saturation of cells with dye” value (Prorocentrum minimum; 228 μM dye) was “saturated”. The “cell penetration and cellular integrity” value (Prorocentrum minimum; 7.1 to 228 μM, 1% DMSO) was “successfully penetrating Prorocentrum minimum while maintaining cellular integrity”, the “λmax (abs, nm)” value ([4]; Chloroform) was 468 nm and the “λmax (fluor, nm)” value ([4]; Chloroform) was 556 nm. For the same compound, the “λmax (abs, nm)” value ([4]; DMSO) was 442 nm, the “λmax (fluor, nm)” value ([4]; DMSO) was 614 nm and the “λmax (abs, nm)” value ([4]; Methanol) was 445 nm. The “∈max” value ([4]; Methanol) was 20000 M⁻¹ cm⁻¹, the “λmax (fluor, nm)” value ([4]; Methanol) was 604 nm and the “λmax (abs, nm)” value ([4]; TE buffer) was 409 nm. For the same compound, the “∈max” value ([4]; TE buffer) was 17000 M⁻¹ cm⁻¹, the Stokes shift ([4]; TE buffer (peak value)) was 202 nm and the “λmax (fluor, nm)” value ([4]; TE buffer) was 611 nm. The “hypsochromic shift of absorbance maximum” value ([4]; between chloroform and water) was 59 nm and the “extrapolated βzzz(0), HRS” value [5] was 90±3.
